These are yes or no findings as the source states them, for the method shown.
Biological target: DOC domain of HERC2 (HERC2DOC, aa 2759–2914) (human) (UniProt O95714)
Assay: NMR titration; 1H,15N HSQC of 0.1–0.2 mM 15N-labelled HERC2 protein titrated with unlabeled protein or peptide; 298 K; 20 mM Tris (pH 6.8) or 20 mM PBS (pH 6.5), 150 mM NaCl, 2 mM DTT, 10% D2O; both purified

Chains of the proteins cited; added tags and fusions are not shown. Lines headed by an entry give the natural chain unless they say otherwise; changes in a name come on top. A line that says so, or that is headed by a name, gives the form on record, which may keep a tag or linker. Residues count along the entry.
DOC domain of HERC2 (HERC2DOC, aa 2759–2914) (O95714, residues 2759-2914): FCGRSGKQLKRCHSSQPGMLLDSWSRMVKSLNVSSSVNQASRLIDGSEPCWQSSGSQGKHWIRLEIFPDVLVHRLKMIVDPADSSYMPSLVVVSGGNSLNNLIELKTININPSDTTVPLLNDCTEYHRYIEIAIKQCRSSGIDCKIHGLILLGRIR
ZZ domain of HERC2 (HERC2ZZ, aa 2702–2755 with additional tryptophan at the C-terminus) (O95714, form named): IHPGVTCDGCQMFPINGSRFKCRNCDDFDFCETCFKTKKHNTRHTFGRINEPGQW

## ZZ domain of HERC2 (HERC2ZZ, aa 2702–2755 with additional tryptophan at the C-terminus) (from UniProt O95714 2702-2755) (domain or fragment)
  binding: no binding

Reference: publication PMC9001736
